Assay results from the supplement of paper PMC12595434, “Development of retinoid nuclear receptor pathway antagonists through targeting aldehyde dehydrogenase 1A3” (iScience, 2025).
The other results are listed elsewhere or left out. Single values of this set are uncertain.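 Many melting curves are irregular; where none melted, Tm was taken as 64 °C.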

The chains behind the UniProt entries cited, without tags or fusion partners. Where a name states a change or a piece, a line headed by the entry shows the natural chain unless it says otherwise.
UniProt Q14644: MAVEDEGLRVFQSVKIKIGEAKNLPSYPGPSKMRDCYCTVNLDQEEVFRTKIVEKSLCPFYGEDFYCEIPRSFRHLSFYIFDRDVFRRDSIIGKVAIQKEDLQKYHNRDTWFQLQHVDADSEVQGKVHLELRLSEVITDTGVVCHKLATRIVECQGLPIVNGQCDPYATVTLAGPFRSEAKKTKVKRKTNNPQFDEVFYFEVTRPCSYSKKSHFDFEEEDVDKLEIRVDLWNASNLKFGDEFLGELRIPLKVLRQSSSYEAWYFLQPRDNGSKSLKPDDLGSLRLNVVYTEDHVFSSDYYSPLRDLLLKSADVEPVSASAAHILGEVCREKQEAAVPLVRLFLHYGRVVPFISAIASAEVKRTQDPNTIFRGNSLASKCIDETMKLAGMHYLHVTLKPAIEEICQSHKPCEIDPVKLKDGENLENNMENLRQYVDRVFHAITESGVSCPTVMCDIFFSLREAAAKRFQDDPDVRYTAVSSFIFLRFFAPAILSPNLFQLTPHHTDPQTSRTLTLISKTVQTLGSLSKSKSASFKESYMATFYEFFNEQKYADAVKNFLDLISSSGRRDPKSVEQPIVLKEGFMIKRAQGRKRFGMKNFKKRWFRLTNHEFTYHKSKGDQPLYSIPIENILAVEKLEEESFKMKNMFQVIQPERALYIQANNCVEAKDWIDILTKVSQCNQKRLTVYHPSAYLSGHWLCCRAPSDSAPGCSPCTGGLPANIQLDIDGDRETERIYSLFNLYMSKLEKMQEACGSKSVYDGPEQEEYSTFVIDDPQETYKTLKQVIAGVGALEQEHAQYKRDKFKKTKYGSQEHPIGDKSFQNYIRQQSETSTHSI
UniProt Q14643, whole entry: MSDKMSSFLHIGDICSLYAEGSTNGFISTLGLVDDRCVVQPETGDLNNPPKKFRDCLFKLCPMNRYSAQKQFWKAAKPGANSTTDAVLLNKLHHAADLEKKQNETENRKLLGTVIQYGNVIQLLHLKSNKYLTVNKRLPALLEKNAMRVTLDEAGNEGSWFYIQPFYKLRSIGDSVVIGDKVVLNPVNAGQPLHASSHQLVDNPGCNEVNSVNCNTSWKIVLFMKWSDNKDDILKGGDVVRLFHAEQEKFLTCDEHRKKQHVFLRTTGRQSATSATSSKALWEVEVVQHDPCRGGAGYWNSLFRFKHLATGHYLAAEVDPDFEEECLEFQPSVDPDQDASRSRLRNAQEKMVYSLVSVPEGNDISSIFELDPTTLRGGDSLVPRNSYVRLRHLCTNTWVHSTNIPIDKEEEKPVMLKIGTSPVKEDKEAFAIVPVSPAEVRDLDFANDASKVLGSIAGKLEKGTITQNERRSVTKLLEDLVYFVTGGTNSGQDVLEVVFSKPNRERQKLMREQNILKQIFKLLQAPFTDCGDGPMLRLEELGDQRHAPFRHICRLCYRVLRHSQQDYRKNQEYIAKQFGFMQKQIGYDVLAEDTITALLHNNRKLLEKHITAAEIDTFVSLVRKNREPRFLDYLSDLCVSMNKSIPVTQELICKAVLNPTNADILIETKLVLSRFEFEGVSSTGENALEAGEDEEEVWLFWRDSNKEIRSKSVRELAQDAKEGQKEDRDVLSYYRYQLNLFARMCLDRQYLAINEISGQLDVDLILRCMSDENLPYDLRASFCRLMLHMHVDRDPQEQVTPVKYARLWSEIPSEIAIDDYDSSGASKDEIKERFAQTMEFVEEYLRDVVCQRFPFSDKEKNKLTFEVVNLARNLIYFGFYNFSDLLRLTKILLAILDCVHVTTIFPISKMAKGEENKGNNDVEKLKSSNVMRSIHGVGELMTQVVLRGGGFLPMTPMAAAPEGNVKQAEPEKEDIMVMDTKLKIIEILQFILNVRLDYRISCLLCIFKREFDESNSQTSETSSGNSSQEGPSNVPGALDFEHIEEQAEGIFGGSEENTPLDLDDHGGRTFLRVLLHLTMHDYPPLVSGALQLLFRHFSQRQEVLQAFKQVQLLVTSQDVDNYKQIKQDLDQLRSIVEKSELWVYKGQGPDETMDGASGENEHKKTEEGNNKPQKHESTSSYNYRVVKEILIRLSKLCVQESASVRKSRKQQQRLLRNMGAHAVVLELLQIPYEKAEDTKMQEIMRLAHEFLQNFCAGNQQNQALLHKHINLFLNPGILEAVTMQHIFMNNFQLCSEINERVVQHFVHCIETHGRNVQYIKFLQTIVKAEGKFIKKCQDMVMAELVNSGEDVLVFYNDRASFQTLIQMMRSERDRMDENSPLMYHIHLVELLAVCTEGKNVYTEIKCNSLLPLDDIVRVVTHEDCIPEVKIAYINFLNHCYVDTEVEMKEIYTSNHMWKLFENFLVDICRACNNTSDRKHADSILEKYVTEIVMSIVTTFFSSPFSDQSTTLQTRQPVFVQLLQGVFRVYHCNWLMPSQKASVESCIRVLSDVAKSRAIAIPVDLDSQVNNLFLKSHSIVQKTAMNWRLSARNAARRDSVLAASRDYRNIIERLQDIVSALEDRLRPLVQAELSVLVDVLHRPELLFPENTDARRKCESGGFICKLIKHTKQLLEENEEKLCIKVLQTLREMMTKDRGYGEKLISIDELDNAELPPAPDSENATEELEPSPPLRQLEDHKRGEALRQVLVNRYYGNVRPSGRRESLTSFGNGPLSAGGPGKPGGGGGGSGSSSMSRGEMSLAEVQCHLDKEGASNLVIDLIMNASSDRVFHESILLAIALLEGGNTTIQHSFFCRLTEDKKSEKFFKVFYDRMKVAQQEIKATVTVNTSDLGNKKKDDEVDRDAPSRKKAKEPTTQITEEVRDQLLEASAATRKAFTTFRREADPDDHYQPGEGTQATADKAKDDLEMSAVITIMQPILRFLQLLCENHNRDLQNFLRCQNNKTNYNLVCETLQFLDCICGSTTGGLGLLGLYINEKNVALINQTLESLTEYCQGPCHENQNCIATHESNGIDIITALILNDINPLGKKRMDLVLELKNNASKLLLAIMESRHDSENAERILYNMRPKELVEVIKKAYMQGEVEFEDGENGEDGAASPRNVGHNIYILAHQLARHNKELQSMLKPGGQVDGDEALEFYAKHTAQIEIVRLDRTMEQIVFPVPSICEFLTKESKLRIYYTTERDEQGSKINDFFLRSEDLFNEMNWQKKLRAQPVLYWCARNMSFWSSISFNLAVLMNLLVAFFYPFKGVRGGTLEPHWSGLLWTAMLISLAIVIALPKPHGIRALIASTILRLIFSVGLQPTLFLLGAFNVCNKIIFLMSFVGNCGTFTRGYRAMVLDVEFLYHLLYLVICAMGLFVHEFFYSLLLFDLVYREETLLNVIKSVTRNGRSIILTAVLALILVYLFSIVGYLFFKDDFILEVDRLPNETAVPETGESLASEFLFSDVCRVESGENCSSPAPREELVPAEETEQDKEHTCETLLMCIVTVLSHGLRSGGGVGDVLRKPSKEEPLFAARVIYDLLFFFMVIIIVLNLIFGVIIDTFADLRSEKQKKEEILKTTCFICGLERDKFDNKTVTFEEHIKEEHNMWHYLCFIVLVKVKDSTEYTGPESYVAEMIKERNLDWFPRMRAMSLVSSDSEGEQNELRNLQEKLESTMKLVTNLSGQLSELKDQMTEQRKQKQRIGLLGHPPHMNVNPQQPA
UniProt Q13232: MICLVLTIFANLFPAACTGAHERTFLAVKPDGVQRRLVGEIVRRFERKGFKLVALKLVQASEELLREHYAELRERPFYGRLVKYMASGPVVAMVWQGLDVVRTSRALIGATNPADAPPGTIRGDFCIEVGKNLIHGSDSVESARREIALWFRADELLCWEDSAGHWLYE
UniProt Q13451: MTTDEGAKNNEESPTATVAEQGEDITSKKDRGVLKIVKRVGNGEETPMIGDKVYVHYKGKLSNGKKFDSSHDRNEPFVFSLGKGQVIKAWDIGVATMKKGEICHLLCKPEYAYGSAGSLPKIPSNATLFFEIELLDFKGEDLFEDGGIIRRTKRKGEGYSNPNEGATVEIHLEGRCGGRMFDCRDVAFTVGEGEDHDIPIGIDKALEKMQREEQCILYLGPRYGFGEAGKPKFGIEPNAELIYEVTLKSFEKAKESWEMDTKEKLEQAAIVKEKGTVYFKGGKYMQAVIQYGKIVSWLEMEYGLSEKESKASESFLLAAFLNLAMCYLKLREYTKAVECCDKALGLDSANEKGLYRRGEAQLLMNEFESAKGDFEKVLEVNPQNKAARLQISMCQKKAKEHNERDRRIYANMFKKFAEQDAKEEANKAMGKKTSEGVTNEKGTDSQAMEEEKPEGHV
UniProt Q13426: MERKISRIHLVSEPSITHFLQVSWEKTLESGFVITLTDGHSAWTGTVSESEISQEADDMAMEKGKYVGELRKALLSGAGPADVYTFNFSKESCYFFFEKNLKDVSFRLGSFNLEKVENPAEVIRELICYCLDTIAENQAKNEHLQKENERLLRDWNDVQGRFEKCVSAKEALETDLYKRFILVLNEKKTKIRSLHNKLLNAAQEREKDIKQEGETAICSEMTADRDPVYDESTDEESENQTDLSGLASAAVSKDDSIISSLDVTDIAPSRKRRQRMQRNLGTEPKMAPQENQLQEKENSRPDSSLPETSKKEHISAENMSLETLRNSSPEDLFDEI
UniProt Q13131: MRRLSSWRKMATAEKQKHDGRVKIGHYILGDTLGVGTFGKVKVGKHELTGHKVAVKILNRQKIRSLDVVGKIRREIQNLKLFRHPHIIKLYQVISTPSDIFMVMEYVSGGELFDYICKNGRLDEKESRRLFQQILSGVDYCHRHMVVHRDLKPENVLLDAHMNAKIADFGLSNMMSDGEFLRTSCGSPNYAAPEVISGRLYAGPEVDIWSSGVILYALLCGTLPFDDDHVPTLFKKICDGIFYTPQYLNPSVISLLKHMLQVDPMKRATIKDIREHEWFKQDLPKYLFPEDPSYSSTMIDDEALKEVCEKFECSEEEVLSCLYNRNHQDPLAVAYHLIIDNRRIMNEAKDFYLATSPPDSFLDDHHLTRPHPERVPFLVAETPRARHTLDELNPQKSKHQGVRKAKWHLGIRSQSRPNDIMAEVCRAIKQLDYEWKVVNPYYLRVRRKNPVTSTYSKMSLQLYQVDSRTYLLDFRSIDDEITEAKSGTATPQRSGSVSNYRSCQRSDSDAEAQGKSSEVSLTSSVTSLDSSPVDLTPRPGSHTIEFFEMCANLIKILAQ
UniProt Q13472: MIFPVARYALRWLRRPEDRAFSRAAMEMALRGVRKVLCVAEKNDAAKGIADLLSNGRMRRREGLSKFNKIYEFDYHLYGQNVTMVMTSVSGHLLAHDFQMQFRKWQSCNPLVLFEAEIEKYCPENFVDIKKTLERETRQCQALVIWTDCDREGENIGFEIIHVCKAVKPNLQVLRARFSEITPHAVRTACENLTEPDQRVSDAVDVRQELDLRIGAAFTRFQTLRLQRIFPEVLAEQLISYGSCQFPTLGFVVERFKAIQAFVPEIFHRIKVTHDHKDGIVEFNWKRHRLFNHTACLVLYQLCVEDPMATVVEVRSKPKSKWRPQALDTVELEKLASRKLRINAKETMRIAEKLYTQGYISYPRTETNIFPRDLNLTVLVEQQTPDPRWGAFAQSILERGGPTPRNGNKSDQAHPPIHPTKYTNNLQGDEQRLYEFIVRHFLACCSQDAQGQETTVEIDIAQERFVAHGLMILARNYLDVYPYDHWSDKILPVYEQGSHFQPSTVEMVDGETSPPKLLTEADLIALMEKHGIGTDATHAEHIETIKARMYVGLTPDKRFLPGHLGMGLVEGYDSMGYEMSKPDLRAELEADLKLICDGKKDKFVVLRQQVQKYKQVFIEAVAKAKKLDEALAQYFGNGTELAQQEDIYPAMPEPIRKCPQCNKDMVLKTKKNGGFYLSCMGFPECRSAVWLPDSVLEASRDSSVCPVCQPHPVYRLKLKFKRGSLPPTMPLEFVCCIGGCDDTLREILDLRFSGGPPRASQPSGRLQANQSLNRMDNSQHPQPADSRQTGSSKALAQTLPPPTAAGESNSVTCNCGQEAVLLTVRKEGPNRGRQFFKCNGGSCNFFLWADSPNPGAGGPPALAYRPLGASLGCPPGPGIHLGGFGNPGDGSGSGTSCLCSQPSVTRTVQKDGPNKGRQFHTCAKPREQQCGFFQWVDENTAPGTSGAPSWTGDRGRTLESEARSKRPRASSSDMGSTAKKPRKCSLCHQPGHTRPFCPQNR
UniProt Q13888: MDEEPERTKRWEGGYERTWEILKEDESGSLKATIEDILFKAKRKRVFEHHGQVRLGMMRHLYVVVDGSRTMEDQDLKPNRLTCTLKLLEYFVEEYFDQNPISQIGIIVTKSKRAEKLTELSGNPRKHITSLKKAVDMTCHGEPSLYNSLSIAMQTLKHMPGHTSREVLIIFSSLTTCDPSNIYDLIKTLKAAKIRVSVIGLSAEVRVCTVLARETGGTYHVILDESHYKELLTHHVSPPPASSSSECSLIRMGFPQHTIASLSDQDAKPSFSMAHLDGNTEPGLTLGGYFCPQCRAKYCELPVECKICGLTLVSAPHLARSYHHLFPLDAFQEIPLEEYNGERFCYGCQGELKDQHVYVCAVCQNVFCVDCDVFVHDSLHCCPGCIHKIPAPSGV

Compound: CCc1cnccc1C(=O)Nc1cc2c(cc1F)NC(=O)CC2
Assay: melting temperature shift (DMSO Tm minus MBE1-treated Tm) in cellular thermal proteome profiling; higher = less thermal stabilization by MBE1 (negative = stabilized by MBE1)
Conditions: A375

| Target | melting temperature shift (MBE1 concentration: 100 nM) [°C] | melting temperature shift (MBE1 concentration: 1 uM) [°C] |
| --- | --- | --- |
| RASA3 (UniProt Q14644) | -1.21 | -0.359 |
| ITPR1 (UniProt Q14643) | -0.438 | -0.386 |
| NAA30 (UniProt Q147X3) | 0.397 | 0.464 |
| NME3 (UniProt Q13232) | -4.16 | -2.49 |
| ICT1 (UniProt Q14197) | -0.507 | 0.537 |
| FKBP5 (UniProt Q13451) | -0.0769 | -0.237 |
| SF3B2 (UniProt Q13435) | -0.592 | 0.531 |
| GANAB (UniProt Q14697) | -1.02 | -0.228 |
| XRCC4 (UniProt Q13426) | -2.26 | -4.79 |
| UniProt Q13948 | -0.0916 | 0.336 |
| PLD1 (UniProt Q13393) | -2.25 | -0.567 |
| GOLGA4 (UniProt Q13439) | -1.09 | -0.772 |
| UniProt Q13131 | 0.641 | 0.55 |
| UNC119 (UniProt Q13432) | 0.69 | 0.611 |
| KRR1 (UniProt Q13601) | -0.128 | -0.557 |
| TOP3A (UniProt Q13472) | 5.51 | 0.718 |
| POLD3 (UniProt Q15054) | -0.365 | -0.288 |
| ENDOG (UniProt Q14249) | -0.753 | -0.0268 |
| CAMK2D (UniProt Q13557) | 0.678 | 0.0855 |
| UniProt Q13404 | -1.13 | -1.36 |
| TUBB3 (UniProt Q13509) | -0.967 | 0.188 |
| DRAP1 (UniProt Q14919) | -3.69 | -0.118 |
| UniProt Q13888 | -1.12 | -0.0047 |
| DYRK1A (UniProt Q13627) | -0.513 | 0.391 |
| MORC3 (UniProt Q14149) | -0.786 | -0.165 |
| MEF2D (UniProt Q14814) | 0.0134 | 0.174 |
| MORF4L2 (UniProt Q15014) | -1.33 | 12.4 |
| SCARB2 (UniProt Q14108) | -2.8 | -2.76 |
| MTM1 (UniProt Q13496) | -1.05 | 0.379 |

Single records (already shown). Order of values: melting temperature shift (MBE1 concentration: 100 nM) [°C]	melting temperature shift (MBE1 concentration: 1 uM) [°C]
NME3 (UniProt Q13232) is listed as -4.16	-2.49
PLD1 (UniProt Q13393) is listed as -2.25	-0.567
